Measured values reported in PubChem BioAssay AID1918940 (Molecular Pharmacology Branch, DTP, NCI, 2023).
Several values for one entry are separate records, joined by “and”; a condition that tells them apart may be missing. Identical values can stand only once. Further values from the same series stand in other lists.

System: NCI-H211 complex spheroid viability
Test: Anticancer human tumor NCI-H211 cell line growth inhibition [LSD1];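 further: luminescent viability read after seven days of drug exposure; 100% = DMSO vehicle control viability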
Settings: compound 10 µM; active compounds read low
Description: Multicellular complex tumor spheroid response to LSD1 Inhibitor Iadademstat in combination with a variety of drugs and investigational agents in selected tumor cell lines
The current study was undertaken to assess response to LSD1 inhibitors in combination with standard-of-care drugs and investigational agents in solid tumor complex spheroid models as well as in the K-562 leukemia. Complex spheroids include a stromal component modeled by human endothelial cells (HUVEC) and fibroblasts modeled by human mesenchymal stem cells (MSCs). The concentration ranges selected for each drug and investigational agent were based upon clinically achievable concentrations if the clinical Cmax of the agent was known.
Compounds. The drugs and investigational agents used in this study are listed on Table 1. All of the agents used, including staurosporine (NSC755774) and gemcitabine (NSC613327), were obtained from the Developmental Therapeutics Program, NCI. FDA-approved anticancer drugs are available from the NCI at http://dtp.nci.nih.gov/branches/dscb/oncology_drugset_explanation.html. Drugs and investigational agents were >95% pure by proton nuclear magnetic resonance (NMR) and liquid chromatography/mass spectrometry (LC/MS). […] If the clinical Cmax for an agent had not been determined, the highest concentration tested was 10 microM. […]

NC1CCC(NC2CC2c2ccccc2)CC1 (stereo unspecified)
viability, T/C: 37.2% and 29.1%
